Assay results reported in US20260266848A1, “COMPOSITIONS AND METHODS FOR DIAGNOSING AND TREATING DYSTONIA” (Duke University, priority 2023, published 2026).

Chains of the proteins cited; added tags and fusions are not shown. Lines headed by an entry give the natural chain unless they say otherwise; changes in a name come on top.
UniProt P26350: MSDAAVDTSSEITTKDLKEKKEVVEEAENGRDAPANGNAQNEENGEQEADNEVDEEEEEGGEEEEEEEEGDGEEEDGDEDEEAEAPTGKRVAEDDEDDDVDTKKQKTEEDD

Columns and labels:
[1] = system: DYT1 patient plasma derived EVs; assay: Plasma-derived EV proteomics (ExoQuick ULTRA, DIA LC/MS/MS), DYT1 vs Healthy Controls; parameters: species or system human; conditions: for Mean DYT1 / Mean HC: protein abundance; for Mean DYT1: DYT1 patients; for Mean HC: healthy controls (HC); for Log2FC: DYT1 patients as compared to healthy controls; for Directionality / Log2_FC: Hs. Plasma EVs (DYT1/WT); for Log2_FC: protein level, human patient derived EVs by genotype; for Hs. Plasma EVs (DYT1/WT): directionality of protein change, human plasma derived EVs, DYT1 vs WT(HC)
Experimental: Data was obtained for extracellular vesicles using previously acquired samples. The ExoQuick® ULTRA EV Isolation System was used to fractionate and enrich EVs from plasma. Isolated plasma EV samples were then submitted to proteomic analysis by the Duke Proteomics and Metabolomics Core Facility (DPMCF). At the DPMCF, quantitative (LC/MS/MS) was performed on 500 ng of each sample, using an EvoSep One UPLC system coupled to a Thermo Orbitrap Astral high-resolution accurate mass tandem mass spectrometer (Thermo). Briefly, the sample was eluted directly from an Evotip which was subjected to a low organic wash and then subjected to an analytical separation using a 1.7 μm EvoSep 150 um ID×15 cm endurance (EveoSep) column running an SPD30 gradient from approximately 5 to 30% acetonitrile with 0.1% formic acid with a column temperature of 50 C. Data collection on the Orbitrap Astral mass spectrometer was performed in a data-independent acquisition (DIA) mode of acquisition with a r=240,000 (@m/z 200) full MS scan from m/z 380-980 with a target AGC value of 4e5 ions. Fixed DIA, windows of 4 m/z from m/z 380 to 980 DIA MS/MS scans were acquired in the Astral with a target AGC value of 5e4 and a max fill time of 6 ms. HCD collision energy setting of 27% was used for all MS2 scans.

DYT-TOR1A MEF EVs [2] = assay: Quantitative LC-MS/MS proteomics of EVs from drug-treated DYT-TOR1A MEF cultures (ritonavir, salubrinal); type: cell-based, mouse; conditions: for DYT1/DYT1 + RTV: Directionality of protein change in MEFs EV dataset in DYT1 derived MEFs treated with Ritonavir; for RTV Corrective Direction: Ritonavir; for RTV Corrective Direction / Sal Corrective Direction: was treatment in MEF's in the direction of WT-like?; for Sal Corrective Direction: Salubrinal; for DYT1/DYT1 + Sal: Directionality of protein change in MEFs EV dataset in DYT1 derived MEFs treated with salubrinal
WT MEF EVs = assay: Quantitative LC-MS/MS proteomics of EVs from ISRIB-treated WT MEF cultures; type: cell-based, mouse; conditions: Directionality of protein change in MEFs EV dataset in WT derived MEFs treated with ISRIB
DYT-TOR1A MEF EVs [3] = assay: Quantitative LC-MS/MS proteomics of MEF EVs, DYT-TOR1A genotype vs WT; type: cell-based, mouse; conditions: Directionality of protein change in MEFs EV dataset between WT and DYT1 derived MEFs

Row | Substance | Mean DYT1 [1] | Mean HC [1] | Log2_FC [1] | other results
1 | ATRIP | 10.249 | 10.86 |  | 
2 | DNAH2 | 7.827 | 8.58 |  | Log2FC [1]: −0.7484
3 | VWF | 14.625 | 15.47 |  | 
4 | Tln1 |  |  |  | DYT1/DYT1 + RTV (DYT-TOR1A MEF EVs [2]): DOWN; RTV Corrective Direction (DYT-TOR1A MEF EVs [2]): Yes; Sal Corrective Direction (DYT-TOR1A MEF EVs [2]): No; WT + ISRIB/WT (WT MEF EVs): DOWN; DYT1/WT (DYT-TOR1A MEF EVs [3]): DOWN
5 | SOGA1 | 9.962 | 11.58 |  | 
6 | MKI67 | 7.413 | 9.49 |  | 
7 | LAMA1 | 3.504 | 4.57 |  | 
8 | TGFB2 | 4.406 | 5.40 | -0.9952 | Log2FC [1]: −0.9952; Directionality [1]: DOWN; Hs. Plasma EVs (DYT1/WT) [1]: DOWN
9 | GOLGA4 | 11.154 | 10.24 |  | 
10 | Psmc5 |  |  |  | DYT1/DYT1 + RTV (DYT-TOR1A MEF EVs [2]): DOWN; DYT1/DYT1 + Sal (DYT-TOR1A MEF EVs [2]): DOWN; RTV Corrective Direction (DYT-TOR1A MEF EVs [2]): Yes; Sal Corrective Direction (DYT-TOR1A MEF EVs [2]): Yes; WT + ISRIB/WT (WT MEF EVs): DOWN; DYT1/WT (DYT-TOR1A MEF EVs [3]): DOWN
11 | Mapk3 |  |  |  | DYT1/DYT1 + RTV (DYT-TOR1A MEF EVs [2]): DOWN; DYT1/DYT1 + Sal (DYT-TOR1A MEF EVs [2]): DOWN; RTV Corrective Direction (DYT-TOR1A MEF EVs [2]): Yes; Sal Corrective Direction (DYT-TOR1A MEF EVs [2]): Yes; WT + ISRIB/WT (WT MEF EVs): DOWN; DYT1/WT (DYT-TOR1A MEF EVs [3]): DOWN
12 | FAM98A | 1.241 | 2.94 |  | 
13 | TUBA1B | 10.079 | 9.36 |  | 
14 | Pi4ka |  |  |  | RTV Corrective Direction (DYT-TOR1A MEF EVs [2]): Yes; Sal Corrective Direction (DYT-TOR1A MEF EVs [2]): Yes
15 | Arl8b |  |  |  | RTV Corrective Direction (DYT-TOR1A MEF EVs [2]): Yes; Sal Corrective Direction (DYT-TOR1A MEF EVs [2]): No
16 | CLK3 | 10.306 | 10.50 |  | 
17 | Myh9 |  |  |  | RTV Corrective Direction (DYT-TOR1A MEF EVs [2]): No; Sal Corrective Direction (DYT-TOR1A MEF EVs [2]): No; DYT1/WT (DYT-TOR1A MEF EVs [3]): DOWN
18 | AGL | 6.109 | 6.61 |  | 
19 | FGL1 | 7.153 | 7.97 |  | 
20 | TARDBP | 3.697 | 4.91 | -1.21 | Directionality [1]: DOWN; Hs. Plasma EVs (DYT1/WT) [1]: DOWN
21 | ITGA2B | 10.153 | 8.85 |  | Log2FC [1]: 1.3017
22 | PRSS1 | 10.851 | 11.23 |  | Log2FC [1]: −0.3818
23 | PSMC5 | 4.508 | 5.11 | -0.5986 | Directionality [1]: DOWN; Hs. Plasma EVs (DYT1/WT) [1]: DOWN
24 | ANK1 | 5.232 | 3.92 |  | Log2FC [1]: 1.3159

Row | Substance | Mean DYT1 [1] | Mean HC [1] | Log2_FC [1] | other results
25 | DLST | 5.753 | 6.84 | -1.085 | Log2FC [1]: −1.0854; Directionality [1]: DOWN; Hs. Plasma EVs (DYT1/WT) [1]: DOWN
26 | RHOA | 6.529 | 5.98 | 0.5465 | 
27 | CRYAB | 3.127 | 4.21 | -1.087 | Directionality [1]: DOWN; Hs. Plasma EVs (DYT1/WT) [1]: DOWN
28 | TLN2 | 4.909 | 6.13 | -1.218 | Directionality [1]: DOWN; Hs. Plasma EVs (DYT1/WT) [1]: DOWN
29 | HBD | 10.966 | 9.30 |  | 
30 | PI4KA | 11.703 | 11.97 | -0.2654 | Log2FC [1]: −0.2654; Directionality [1]: DOWN; Hs. Plasma EVs (DYT1/WT) [1]: DOWN
31 | PSME4 | 7.365 | 8.24 | -0.8792 | Directionality [1]: DOWN; Hs. Plasma EVs (DYT1/WT) [1]: DOWN
32 | TLN1 | 8.739 | 7.57 | 1.171 | 
33 | PCMT1 | 3.811 | 4.50 | -0.693 | Directionality [1]: DOWN; Hs. Plasma EVs (DYT1/WT) [1]: DOWN
34 | SETD2 | 8.990 | 10.52 |  | 
35 | DLD | 3.942 | 4.81 |  | 
36 | RHOC | 6.044 | 5.12 |  | 
37 | CEP170 | 3.627 | 2.36 |  | 
38 | MAPK3 | 3.577 | 4.52 | -0.9403 | Directionality [1]: DOWN; Hs. Plasma EVs (DYT1/WT) [1]: DOWN
39 | GPR17 | 4.951 | 6.18 |  | 
40 | ARL8B | −0.118 | 1.31 | -1.423 | Directionality [1]: DOWN; Hs. Plasma EVs (DYT1/WT) [1]: DOWN
41 | STOM | 8.193 | 6.89 | 1.306 | Log2FC [1]: 1.3063
42 | Ptma (SDAAVDTSSEITTKDLKEKKEVVEEAEN; UniProt P26350 2-29, looked up) |  |  |  | DYT1/DYT1 + Sal (DYT-TOR1A MEF EVs [2]): DOWN; RTV Corrective Direction (DYT-TOR1A MEF EVs [2]): Yes; Sal Corrective Direction (DYT-TOR1A MEF EVs [2]): No
43 | FLNA | 8.016 | 6.89 | 1.127 | 
44 | SPTB | 6.706 | 5.61 |  | 
45 | MYH9 | 6.965 | 6.30 | 0.6672 | 
46 | WNK1 | 1.769 | 2.63 |  | 
47 | HBA1 | 15.348 | 13.50 |  | 
